Data taken from the supplement of paper PMC12595434, “Development of retinoid nuclear receptor pathway antagonists through targeting aldehyde dehydrogenase 1A3” (iScience, 2025).
Some of the results follow. This is a noisy data set.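 Tm was set to 64 °C where no melting was found, and many curves are irregular.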

Sequences of proteins named here, by UniProt entry; tags and fusion partners are left off. A change or cut given only in a name is not applied to a line headed by its entry.
UniProt O75691: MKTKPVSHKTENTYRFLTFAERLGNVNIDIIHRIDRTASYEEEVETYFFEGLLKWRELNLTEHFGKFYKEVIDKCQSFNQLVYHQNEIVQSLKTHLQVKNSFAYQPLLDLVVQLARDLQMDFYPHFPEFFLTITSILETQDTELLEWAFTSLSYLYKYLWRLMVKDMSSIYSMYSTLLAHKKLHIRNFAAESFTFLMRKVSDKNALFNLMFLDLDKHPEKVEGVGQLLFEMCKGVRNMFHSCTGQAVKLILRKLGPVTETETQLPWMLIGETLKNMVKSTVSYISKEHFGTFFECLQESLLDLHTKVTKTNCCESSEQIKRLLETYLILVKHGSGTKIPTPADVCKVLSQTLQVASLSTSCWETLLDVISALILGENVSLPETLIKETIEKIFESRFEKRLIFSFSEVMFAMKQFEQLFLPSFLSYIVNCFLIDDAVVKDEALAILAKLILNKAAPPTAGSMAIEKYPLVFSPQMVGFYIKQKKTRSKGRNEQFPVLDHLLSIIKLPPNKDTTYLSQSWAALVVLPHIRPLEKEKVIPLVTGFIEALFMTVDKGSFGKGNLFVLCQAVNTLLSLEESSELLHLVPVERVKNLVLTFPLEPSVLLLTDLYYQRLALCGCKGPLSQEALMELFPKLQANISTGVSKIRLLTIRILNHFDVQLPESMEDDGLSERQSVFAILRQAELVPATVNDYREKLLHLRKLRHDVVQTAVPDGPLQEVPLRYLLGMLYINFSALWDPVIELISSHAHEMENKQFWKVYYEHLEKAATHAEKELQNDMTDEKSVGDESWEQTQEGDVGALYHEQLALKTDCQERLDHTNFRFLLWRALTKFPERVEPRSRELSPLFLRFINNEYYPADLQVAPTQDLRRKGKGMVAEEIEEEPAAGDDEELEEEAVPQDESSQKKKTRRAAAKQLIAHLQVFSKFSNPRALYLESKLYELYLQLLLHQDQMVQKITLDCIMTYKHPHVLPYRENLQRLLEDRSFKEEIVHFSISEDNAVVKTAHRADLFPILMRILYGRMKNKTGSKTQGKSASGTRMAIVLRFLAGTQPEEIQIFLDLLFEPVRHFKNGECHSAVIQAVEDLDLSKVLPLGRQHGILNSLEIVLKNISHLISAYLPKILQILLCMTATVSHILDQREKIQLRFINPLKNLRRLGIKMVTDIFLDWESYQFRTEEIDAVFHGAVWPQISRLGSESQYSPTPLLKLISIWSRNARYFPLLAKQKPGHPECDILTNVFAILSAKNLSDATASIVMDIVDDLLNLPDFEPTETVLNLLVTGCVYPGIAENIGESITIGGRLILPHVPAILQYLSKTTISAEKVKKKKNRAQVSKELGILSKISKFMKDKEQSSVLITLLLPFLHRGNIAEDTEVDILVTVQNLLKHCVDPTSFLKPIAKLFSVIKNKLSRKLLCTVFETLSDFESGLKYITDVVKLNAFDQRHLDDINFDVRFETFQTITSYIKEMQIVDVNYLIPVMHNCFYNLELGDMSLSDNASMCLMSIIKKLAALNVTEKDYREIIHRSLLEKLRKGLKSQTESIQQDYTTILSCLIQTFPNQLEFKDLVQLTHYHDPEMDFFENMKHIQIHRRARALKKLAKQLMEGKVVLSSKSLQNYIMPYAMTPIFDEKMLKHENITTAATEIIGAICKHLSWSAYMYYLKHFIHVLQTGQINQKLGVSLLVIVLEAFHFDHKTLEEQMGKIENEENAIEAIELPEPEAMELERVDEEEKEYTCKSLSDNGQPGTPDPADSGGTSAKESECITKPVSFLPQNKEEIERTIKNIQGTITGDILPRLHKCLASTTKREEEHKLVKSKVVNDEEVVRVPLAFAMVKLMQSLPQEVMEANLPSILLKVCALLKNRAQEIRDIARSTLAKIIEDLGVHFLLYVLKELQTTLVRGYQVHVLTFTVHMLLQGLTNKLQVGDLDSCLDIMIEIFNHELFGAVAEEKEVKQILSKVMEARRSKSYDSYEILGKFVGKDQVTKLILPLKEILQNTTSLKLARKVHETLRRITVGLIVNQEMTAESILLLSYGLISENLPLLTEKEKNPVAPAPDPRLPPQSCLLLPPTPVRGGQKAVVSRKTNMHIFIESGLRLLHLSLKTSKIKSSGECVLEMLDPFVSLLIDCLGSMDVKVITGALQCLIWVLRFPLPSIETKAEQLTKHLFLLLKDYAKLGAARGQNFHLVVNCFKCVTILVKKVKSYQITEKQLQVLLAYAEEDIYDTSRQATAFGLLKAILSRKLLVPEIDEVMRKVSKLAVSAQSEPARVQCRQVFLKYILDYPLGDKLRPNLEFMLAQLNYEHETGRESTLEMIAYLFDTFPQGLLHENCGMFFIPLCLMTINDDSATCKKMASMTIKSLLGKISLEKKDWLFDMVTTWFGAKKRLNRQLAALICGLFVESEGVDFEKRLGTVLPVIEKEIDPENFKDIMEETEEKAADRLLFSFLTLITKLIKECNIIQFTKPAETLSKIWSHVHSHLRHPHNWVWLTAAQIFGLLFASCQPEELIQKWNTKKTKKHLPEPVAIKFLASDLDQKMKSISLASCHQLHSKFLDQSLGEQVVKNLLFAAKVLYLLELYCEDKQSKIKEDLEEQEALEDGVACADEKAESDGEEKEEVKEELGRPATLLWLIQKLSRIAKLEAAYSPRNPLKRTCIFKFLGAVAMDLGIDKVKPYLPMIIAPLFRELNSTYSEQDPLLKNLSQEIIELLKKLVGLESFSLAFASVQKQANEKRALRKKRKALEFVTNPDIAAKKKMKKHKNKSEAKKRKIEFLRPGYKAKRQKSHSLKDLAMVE
UniProt O43847: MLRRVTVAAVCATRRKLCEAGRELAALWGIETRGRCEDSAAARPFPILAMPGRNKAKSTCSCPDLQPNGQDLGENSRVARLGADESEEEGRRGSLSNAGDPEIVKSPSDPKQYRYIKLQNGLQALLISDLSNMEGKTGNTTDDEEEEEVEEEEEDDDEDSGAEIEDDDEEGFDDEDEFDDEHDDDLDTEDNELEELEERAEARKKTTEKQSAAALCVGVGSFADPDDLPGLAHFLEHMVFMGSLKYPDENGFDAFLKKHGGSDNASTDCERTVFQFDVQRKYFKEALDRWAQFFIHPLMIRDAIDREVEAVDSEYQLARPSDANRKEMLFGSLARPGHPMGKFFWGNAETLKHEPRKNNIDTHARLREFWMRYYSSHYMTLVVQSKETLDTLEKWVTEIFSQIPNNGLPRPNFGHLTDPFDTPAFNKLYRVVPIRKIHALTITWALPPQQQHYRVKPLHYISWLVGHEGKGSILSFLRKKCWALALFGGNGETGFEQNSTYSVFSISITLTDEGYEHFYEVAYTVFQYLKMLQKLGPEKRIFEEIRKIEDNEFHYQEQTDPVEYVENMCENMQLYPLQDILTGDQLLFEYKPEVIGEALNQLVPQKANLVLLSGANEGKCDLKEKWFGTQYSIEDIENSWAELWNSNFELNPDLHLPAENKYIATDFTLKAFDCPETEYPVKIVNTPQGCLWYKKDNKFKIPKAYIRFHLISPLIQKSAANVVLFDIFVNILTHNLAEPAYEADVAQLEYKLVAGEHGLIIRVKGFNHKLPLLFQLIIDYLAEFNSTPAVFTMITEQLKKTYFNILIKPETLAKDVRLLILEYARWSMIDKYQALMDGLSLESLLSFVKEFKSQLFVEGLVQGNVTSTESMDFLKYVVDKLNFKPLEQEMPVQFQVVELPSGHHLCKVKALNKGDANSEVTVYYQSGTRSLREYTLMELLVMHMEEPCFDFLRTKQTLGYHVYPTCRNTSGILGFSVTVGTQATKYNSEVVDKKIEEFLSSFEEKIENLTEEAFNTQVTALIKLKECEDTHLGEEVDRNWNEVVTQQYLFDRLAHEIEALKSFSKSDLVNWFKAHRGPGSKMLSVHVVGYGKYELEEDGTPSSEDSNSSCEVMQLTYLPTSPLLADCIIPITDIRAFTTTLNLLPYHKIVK
UniProt O43805: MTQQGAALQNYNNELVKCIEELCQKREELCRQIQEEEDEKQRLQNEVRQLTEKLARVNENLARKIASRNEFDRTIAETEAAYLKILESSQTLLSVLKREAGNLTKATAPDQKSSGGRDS
UniProt O75396: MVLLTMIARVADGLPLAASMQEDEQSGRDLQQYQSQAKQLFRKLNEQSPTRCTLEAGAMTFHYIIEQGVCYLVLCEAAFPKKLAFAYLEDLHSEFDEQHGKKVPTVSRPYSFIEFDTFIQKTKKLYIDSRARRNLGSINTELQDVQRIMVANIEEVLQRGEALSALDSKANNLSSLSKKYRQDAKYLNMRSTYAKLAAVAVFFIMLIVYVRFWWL
UniProt O75352: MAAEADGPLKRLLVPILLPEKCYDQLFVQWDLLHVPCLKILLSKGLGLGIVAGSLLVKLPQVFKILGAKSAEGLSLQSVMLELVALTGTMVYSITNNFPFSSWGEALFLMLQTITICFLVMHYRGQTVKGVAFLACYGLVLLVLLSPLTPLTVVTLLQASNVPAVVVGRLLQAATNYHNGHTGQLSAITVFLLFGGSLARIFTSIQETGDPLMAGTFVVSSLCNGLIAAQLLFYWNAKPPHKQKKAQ
UniProt O60282: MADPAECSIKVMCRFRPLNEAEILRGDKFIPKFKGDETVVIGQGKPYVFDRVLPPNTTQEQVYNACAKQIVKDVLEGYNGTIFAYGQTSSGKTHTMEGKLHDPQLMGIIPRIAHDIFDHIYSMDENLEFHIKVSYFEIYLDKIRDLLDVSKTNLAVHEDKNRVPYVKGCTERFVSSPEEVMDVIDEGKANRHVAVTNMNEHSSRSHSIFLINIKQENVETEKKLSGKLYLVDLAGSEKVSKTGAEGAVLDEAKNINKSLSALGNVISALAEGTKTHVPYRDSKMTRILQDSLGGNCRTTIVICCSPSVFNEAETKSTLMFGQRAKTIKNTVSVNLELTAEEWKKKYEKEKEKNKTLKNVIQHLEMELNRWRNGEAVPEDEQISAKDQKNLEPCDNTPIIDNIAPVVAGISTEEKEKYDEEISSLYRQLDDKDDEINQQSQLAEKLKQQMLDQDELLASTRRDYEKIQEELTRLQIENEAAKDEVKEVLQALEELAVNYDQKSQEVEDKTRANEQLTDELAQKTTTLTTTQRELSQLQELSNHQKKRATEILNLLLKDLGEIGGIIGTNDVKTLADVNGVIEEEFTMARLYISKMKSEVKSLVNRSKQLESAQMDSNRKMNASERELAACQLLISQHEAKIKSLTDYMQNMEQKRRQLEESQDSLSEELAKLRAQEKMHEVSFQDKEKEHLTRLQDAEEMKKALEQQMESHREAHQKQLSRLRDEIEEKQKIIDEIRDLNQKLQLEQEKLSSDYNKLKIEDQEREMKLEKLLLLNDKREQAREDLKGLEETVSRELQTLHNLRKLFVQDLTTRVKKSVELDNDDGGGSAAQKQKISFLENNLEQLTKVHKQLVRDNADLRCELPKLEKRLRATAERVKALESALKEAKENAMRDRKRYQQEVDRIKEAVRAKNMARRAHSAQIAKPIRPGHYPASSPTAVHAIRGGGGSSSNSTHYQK
UniProt O43776: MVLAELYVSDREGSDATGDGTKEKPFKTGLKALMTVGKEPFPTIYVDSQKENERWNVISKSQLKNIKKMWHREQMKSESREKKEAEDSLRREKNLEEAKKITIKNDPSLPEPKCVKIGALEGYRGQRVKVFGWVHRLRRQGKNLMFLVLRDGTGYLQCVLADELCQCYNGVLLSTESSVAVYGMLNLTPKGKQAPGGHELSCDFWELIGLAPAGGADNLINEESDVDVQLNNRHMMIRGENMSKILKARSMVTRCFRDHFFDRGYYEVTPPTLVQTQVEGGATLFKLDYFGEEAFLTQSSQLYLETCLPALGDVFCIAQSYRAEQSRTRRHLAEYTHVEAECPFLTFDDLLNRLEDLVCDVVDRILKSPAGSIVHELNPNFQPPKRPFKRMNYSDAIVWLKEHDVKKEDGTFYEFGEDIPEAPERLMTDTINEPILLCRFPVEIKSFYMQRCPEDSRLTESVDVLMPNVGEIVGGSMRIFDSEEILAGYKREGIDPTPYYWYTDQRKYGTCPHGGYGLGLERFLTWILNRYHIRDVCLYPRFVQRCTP

Compound: CCc1cnccc1C(=O)Nc1cc2c(cc1F)NC(=O)CC2
Assay: melting temperature shift (DMSO Tm minus MBE1-treated Tm) in cellular thermal proteome profiling; higher = less thermal stabilization by MBE1 (negative = stabilized by MBE1)
Settings: A375; MBE1 concentration: 100 nM

Point of comparison: UTP20 (UniProt O75691), melting temperature shift -0.384 °C. Against it:
- ZNF217 (UniProt O75362) — higher, 0.33 °C
- SRGAP2 (UniProt O75044) — higher, 1.21 °C
- CLASP2 (UniProt O75122) — higher, 0.165 °C
- GMDS (UniProt O60547) — higher, -0.127 °C
- XYLB (UniProt O75191) — lower, -0.819 °C
- SRSF10 (UniProt O75494) — lower, -0.464 °C
- NDUFB5 (UniProt O43674) — lower, -1.06 °C
- NRDC (UniProt O43847) — higher, 1.15 °C
- PRKRA (UniProt O75569) — lower, -0.957 °C
- SGTA (UniProt O43765) — higher, 0.104 °C
- TULP3 (UniProt O75386) — higher, -0.0366 °C
- PMPCB (UniProt O75439) — higher, -0.295 °C
- HMMR (UniProt O75330) — lower, -1.44 °C
- UniProt O60512 — lower, -0.722 °C
- WDHD1 (UniProt O75717) — higher, 4.59 °C
- HTATSF1 (UniProt O43719) — higher, -0.173 °C
- ACSL4 (UniProt O60488) — higher, 0.696 °C
- SSNA1 (UniProt O43805) — lower, -1.66 °C
- DNAJC6 (UniProt O75061) — higher, 0.0427 °C
- NUP155 (UniProt O75694) — higher, 1.29 °C
- SEC22B (UniProt O75396) — higher, 0.0244 °C
- ERI3 (UniProt O43414) — lower, -0.985 °C
- N4BP1 (UniProt O75113) — lower, -0.433 °C
- DFNA5 (UniProt O60443) — lower, -0.671 °C
- MED24 (UniProt O75448) — lower, -0.471 °C
- MYCBP2 (UniProt O75592) — higher, 0.598 °C
- UniProt O75352 — lower, -1.48 °C
- SMARCA5 (UniProt O60264) — higher, -0.128 °C
- DHX16 (UniProt O60231) — higher, 1.67 °C
- DNAJC13 (UniProt O75165) — higher, 1.37 °C
- SIN3B (UniProt O75182) — higher, -0.128 °C
- UniProt O60282 — lower, -0.507 °C
- KPNA6 (UniProt O60684) — lower, -0.842 °C
- NARS (UniProt O43776) — higher, -0.376 °C
- EVI5 (UniProt O60447) — higher, -0.128 °C
- UniProt O75140 — higher, -0.148 °C

Same assay, conditions: A375; MBE1 concentration: 1 uM

Point of comparison: SSNA1 (UniProt O43805), melting temperature shift 1.36 °C. Against it:
- ZNF217 (UniProt O75362) — lower, 0.782 °C
- SRGAP2 (UniProt O75044) — lower, 0.299 °C
- CLASP2 (UniProt O75122) — lower, -0.153 °C
- GMDS (UniProt O60547) — higher, 1.49 °C
- XYLB (UniProt O75191) — lower, -0.231 °C
- SRSF10 (UniProt O75494) — lower, -0.471 °C
- NDUFB5 (UniProt O43674) — lower, -0.33 °C
- NRDC (UniProt O43847) — lower, 0.421 °C
- PRKRA (UniProt O75569) — lower, 1.01 °C
- SGTA (UniProt O43765) — lower, 0.232 °C
- TULP3 (UniProt O75386) — lower, -0.507 °C
- PMPCB (UniProt O75439) — lower, 0.282 °C
- HMMR (UniProt O75330) — lower, 0.568 °C
- UniProt O60512 — lower, -1.18 °C
- WDHD1 (UniProt O75717) — higher, 1.72 °C
- HTATSF1 (UniProt O43719) — lower, -0.43 °C
- ACSL4 (UniProt O60488) — lower, -0.00611 °C
- DNAJC6 (UniProt O75061) — lower, 0.128 °C
- NUP155 (UniProt O75694) — lower, 1.05 °C
- SEC22B (UniProt O75396) — lower, 0.385 °C
- ERI3 (UniProt O43414) — lower, 0.0244 °C
- N4BP1 (UniProt O75113) — lower, -0.908 °C
- UTP20 (UniProt O75691) — lower, -0.282 °C
- DFNA5 (UniProt O60443) — lower, 0.74 °C
- MED24 (UniProt O75448) — lower, 0.501 °C
- MYCBP2 (UniProt O75592) — lower, 0.104 °C
- UniProt O75352 — lower, 0.0472 °C
- SMARCA5 (UniProt O60264) — lower, -0.397 °C
- DHX16 (UniProt O60231) — lower, 0.623 °C
- DNAJC13 (UniProt O75165) — lower, 0.342 °C
- SIN3B (UniProt O75182) — lower, -0.34 °C
- UniProt O60282 — lower, -1.28 °C
- KPNA6 (UniProt O60684) — lower, -1.11 °C
- NARS (UniProt O43776) — lower, 0.336 °C
- EVI5 (UniProt O60447) — lower, 0.208 °C
- UniProt O75140 — lower, 1.15 °C
